Laboratory results: paper PMC11148069
No constants are given. Whether binding was seen depends on the method and setting. In cells and extracts the contact can be indirect. Some results given as binding are weak or reduced against the parent protein; the word gives no strength.

Protein sequences, listed by entry. Tags and fused reporters are not part of them. Residues count along the entry.
UniProt P52948, residues 1-880: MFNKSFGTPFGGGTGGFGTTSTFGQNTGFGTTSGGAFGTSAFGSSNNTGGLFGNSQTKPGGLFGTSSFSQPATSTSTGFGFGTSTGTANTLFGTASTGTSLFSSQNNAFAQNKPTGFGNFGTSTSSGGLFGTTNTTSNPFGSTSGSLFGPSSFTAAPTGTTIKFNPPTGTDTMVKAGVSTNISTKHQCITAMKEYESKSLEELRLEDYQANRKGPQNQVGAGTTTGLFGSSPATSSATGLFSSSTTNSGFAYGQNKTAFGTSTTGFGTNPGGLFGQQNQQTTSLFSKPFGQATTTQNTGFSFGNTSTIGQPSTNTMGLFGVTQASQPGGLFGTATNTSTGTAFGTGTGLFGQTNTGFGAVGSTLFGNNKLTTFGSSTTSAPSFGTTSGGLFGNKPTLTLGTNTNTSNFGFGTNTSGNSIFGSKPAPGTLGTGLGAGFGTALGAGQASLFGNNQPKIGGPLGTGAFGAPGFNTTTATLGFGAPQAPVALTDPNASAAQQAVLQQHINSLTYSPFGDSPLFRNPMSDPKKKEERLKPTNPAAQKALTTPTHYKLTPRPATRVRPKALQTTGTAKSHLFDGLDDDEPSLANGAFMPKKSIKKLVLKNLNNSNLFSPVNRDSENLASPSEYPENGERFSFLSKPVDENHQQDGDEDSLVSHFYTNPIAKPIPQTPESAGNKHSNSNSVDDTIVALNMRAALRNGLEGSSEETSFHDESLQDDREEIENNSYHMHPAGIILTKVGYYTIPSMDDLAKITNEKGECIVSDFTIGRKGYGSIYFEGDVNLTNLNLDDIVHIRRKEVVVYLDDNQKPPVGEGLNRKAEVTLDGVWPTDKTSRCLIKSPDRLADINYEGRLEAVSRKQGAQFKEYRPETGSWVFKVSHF

Biological target: human Nup98, endogenous (human (endogenous in HeLa)) (UniProt P52948)
Assay: pull-down; proteins co-purifying with the Nup that was captured by the immobilised nanobody from HeLa lysate or Xenopus egg extract; SDS-PAGE/Coomassie, identities confirmed by mass spectrometry

- binding: binds
B1: human Gle2, endogenous (protein, UniProt P78406 1-368)
chain: MSLFGTTSGFGTSGTSMFGSATTDNHNPMKDIEVTSSPDDSIGCLSFSPPTLPGNFLIAGSWANDVRCWEVQDSGQTIPKAQQMHTGPVLDVCWSDDGSKVFTASCDKTAKMWDLSSNQAIQIAQHDAPVKTIHWIKAPNYSCVMTGSWDKTLKFWDTRSSNPMMVLQLPERCYCADVIYPMAVVATAERGLIVYQLENQPSEFRRIESPLKHQHRCVAIFKDKQNKPTGFALGSIEGRVAIHYINPPNPAKDNFTFKCHRSNGTNTSAPQDIYAVNGIAFHPVHGTLATVGSDGRFSFWDKDARTKLKTSEQLDQPISACCFNHNGNIFAYASSYDWSKGHEFYNPQKKNYIFLRNAAEELKPRNKK
